The exact form of at least one protein or probe is not confirmed. Weaker means in comparison with the reference protein, sequence or condition of that experiment.
System: PbTCP4 (Pyrus bretschneideri)
Test: EMSA
Details: EMSA as described by Zheng et al. [47], pH and temperature not stated, three independent repeats, recombinant protein, label: 3' biotin

Q: What does the source list for “ACATGCAGGACCACTCACAGACATGCAGGACCACTCACAGACATGCAGGACCACTCACAGACATGCAGGACCACTCACAG (double strand) [PbVND7 promoter probe (PbVND7-Bio-3')]”?
A: binding result: binds; binding result (preincubated with PbXND1-HIS (P2), DNA binding of PbTCP4 compromised): binds more weakly

— paper PMC9369282
